Laboratory results: PubChem BioAssay (NCATS)
This list was built around the results that the source calls inconclusive (neither active nor inactive); the mix of calls is not that of the screen. Potencies of inconclusive entries are doubtful fits and often do not repeat. Calls of active or inactive are those of the source. The call rests on the fitted dose curve; in most records, active means well fitted cell-killing curve with a large enough effect; inconclusive means small, poorly fitted or top-dose-only effect, or effect the other way; inactive means no such curve, though single readings can be large or run the other way.

Experiment: Quantitative High-Throughput drug screen in 47 multiple myeloma cell lines against the NCATS MIPE library collection: ARD_JJKsccE7 cell viability assay (AID 1918929)
Settings: ARD myeloma cell line viability, CellTiter-Glo, 48 h; viability: at 45.8 µM (top of the series)
Source text: PI: Beverly A. Mock Ph.D.
Laboratory of Cancer Biology and Genetics,
Center for Cancer Research, National Cancer Institute,
National Institute of Health, Bethesda, Maryland
Drug resistance and disease progression are common in multiple myeloma (MM) patients, underscoring the need for new therapeutic combinations. […] We hypothesized that effective combinations would reduce MYC expression and enhance p16 activity. […] These preclinical data identify potentially useful drug combinations for evaluation in drug-resistant MM and reveal potential mechanisms of combined drug sensitivity.
Described herein is the primary MIPE qHTS used to cherrypick compounds. Validated compounds were then further tested for potential synergistic activiy.
[1] Peat TJ, Gaikwad SM, Dubois W, Gyabaah-Kessie N, Zhang S, Gorjifard S, Phyo Z, Andres M, Hughitt VK, Simpson RM, Miller MA, Girvin AT, Taylor A, Williams D, D'Antonio N, Zhang Y, Rajagopalan A, Flietner E, Wilson K, Zhang X, Shinn P, Klumpp-Thomas C, McKnight C, Itkin Z, Chen L, Kazandijian D, Zhang J, Michalowski AM, Simmons JK, Keats J, Thomas CJ, Mock BA. Drug combinations identified by high-throughput screening promote cell cycle transition and upregulate Smad pathways in myeloma. Cancer Lett. 2023 Aug 1;568:216284. doi: 10.1016/j.canlet.2023.216284. Epub 2023 Jun 24. PMID: 37356470; PMCID: PMC10408729.
SEQUENCE No. (e.g., 1, 2, 3, etc.); […] (e.g., Cells, Incubation, Reagent, etc.); VALUE and DESCRIPTION.
1; Cells; 5 uL; white, solid bottom 1536-well Greiner assay plate.
2; Compounds; 23 nL; Kalypsis pin tool (Wako USA) equipped with a 1536-well pin head to transfer to the assay plates.
3; Incubation; 48 hours; 37C incubation.
4; Reagent;5uL; CellTiter Glo (Promega).
5; Detector; 425V; Luminescence; Viewlux PerkinElmer.
NOTES (numbers refer to Sequence numbers above)
1. The cell-based screening methods employed in this study were like those previously published. Briefly, the corresponding myeloma cell lines were screened in 1,536-well plates with 500 cells, 5-uL per well for inhibition of cell viability (assessed by measuring ATP levels with CellTiterGlo).
2. NCATS MIPE 4.0 library of approved and investigational drugs were added using the Kalypsis pin tool. Wells treated with DMSO only for 100% viability and media only wells for 0% viability were used as controls.
3. The assay plates were covered and incubated for 48 hours in a 37C, 5% CO2 incubator with controlled humidity.
4. After 48 hours, CellTilter-GloTM luminescent substrate mix (Promega) reagent was added to the assay plate and plates we incubated for 5 min at room temperature.
5. Signal was measured as median relative luminescence units on a ViewLux (PerkinElmer) multiplate reader.
[1] Heske CM, Davis MI, Baumgart JT, Wilson K, Gormally MV, Chen L, Zhang X, Ceribelli M, Duveau DY, Guha R, Ferrer M, Arnaldez FI, Ji J, Tran HL, Zhang Y, Mendoza A, Helman LJ, Thomas CJ. Matrix Screen Identifies Synergistic Combination of PARP Inhibitors and Nicotinamide Phosphoribosyltransferase (NAMPT) Inhibitors in Ewing Sarcoma. Clin Cancer Res. 2017 Dec 1;23(23):7301-7311. doi: 10.1158/1078-0432.CCR-17-1121. Epub 2017 Sep 12. PMID: 28899971; PMCID: PMC6636827.
Potency means the concentration at half of the fitted maximal effect.

SMILES | Potency
c1ccc([C@H]2CN3CCSC3=N2)cc1 | inactive
C1COC(NC(C2CC2)C2CC2)=N1 | inconclusive: 20.9 µM [cytotoxic, partial curve]
CC1(O)CC(c2nc(-c3ccc4ccc(-c5ccccc5)nc4c3)c3c(N)nccn23)C1 (stereo not given) | active: 0.105 µM
COc1ccc2c(c1)c(CC(=O)O)c(C)n2C(=O)c1ccc(Cl)cc1 | inconclusive: 26.4 µM [cytotoxic, single point]
C[C@H](CCC(=O)O)[C@H]1CC[C@H]2[C@@H]3[C@H](O)C[C@@H]4C[C@H](O)CC[C@]4(C)[C@@H]3CC[C@]12C | inactive
CN(C)C(=O)c1ccc(S(=O)(=O)c2ccc(NC(=O)[C@@](C)(O)C(F)(F)F)c(Cl)c2)cc1 | inconclusive: 1.18 µM [cytotoxic, full curve]
CC(O)C1C(=O)N2C(C(=O)O)=C(SC3CNC(C(=O)N(C)C)C3)C(C)C12 (stereo not given) | inactive
COc1ccc(Cc2nccc3cc(OC)c(OC)cc23)cc1OC | inconclusive: 26.4 µM [cytotoxic, partial curve, poor fit]
CC=C1C2C=C(C)CC1(N)c1ccc(=O)[nH]c1C2 (stereo not given) | inactive
C[C@]12C=CC(=O)C=C1CC[C@@H]1[C@@H]2[C@@H](O)C[C@@]2(C)[C@@H]1CC[C@]2(O)C(=O)CO | inconclusive: 0.0059 µM [cytotoxic, full curve, poor fit]
Cc1oc(=O)oc1CN1CCN(c2cc3c(cc2F)c(=O)c(C(=O)O)c2n3C(C)S2)CC1 (stereo not given) | inactive
Cc1ccccc1C(=O)c1ccc(Nc2ccc(Br)cc2N)cc1Cl | inconclusive: 11.8 µM [cytotoxic, single point]
CC(Oc1ccc(O)cc1)(P(=O)(O)O)P(=O)(O)O | inconclusive: 0.0026 µM [cytotoxic, full curve, poor fit]
CCCOc1ccc(C(=O)OCCN(CC)CC)cc1N | inconclusive: 0.001 µM [cytotoxic]
COc1cccc2nc(-c3cccs3)nc(NN3C(=O)C=C(C)C3=O)c12 | active: 1.66 µM
CCn1c(=O)c2c(nc(C=Cc3ccc(OC)c(OC)c3)n2C)n(CC)c1=O | inconclusive: 37.2 µM [cytotoxic, single point]
N#CC[C@H](C1CCCC1)n1cc(-c2ncnc3[nH]ccc23)cn1 | inconclusive: 0.003 µM [cytotoxic, full curve, poor fit]
COc1ccc(-c2cc3nccn3c(Nc3ncccc3C(N)=O)n2)cc1OC | inconclusive: 0.662 µM [cytotoxic, full curve]
Oc1ccc(C2CNCCc3c2cc(O)c(O)c3Cl)cc1 (stereo not given) | inactive
CN(C(=O)c1ccc(F)cc1C(F)(F)F)C1CCN(c2nnc(-c3ccnn3C)c3ccccc23)CC1 | inconclusive: 37.2 µM [cytotoxic, single point]

By substructure, the entries above containing a carbonyl joined to an NH by a bond outside any ring.
SMILES | Potency
CN(C)C(=O)c1ccc(S(=O)(=O)c2ccc(NC(=O)[C@@](C)(O)C(F)(F)F)c(Cl)c2)cc1 | inconclusive: 1.18 µM [cytotoxic, full curve]
COc1ccc(-c2cc3nccn3c(Nc3ncccc3C(N)=O)n2)cc1OC | inconclusive: 0.662 µM [cytotoxic, full curve]

Next part

SMILES | Potency
CCC(C)(C)c1ccc(CC(C)CN2C[C@@H](C)O[C@@H](C)C2)cc1 (stereo not given in full) | inactive
CC(C)c1nc(CN(C)C(=O)N[C@H](C(=O)N[C@@H](Cc2ccccc2)C[C@H](O)[C@H](Cc2ccccc2)NC(=O)OCc2cncs2)C(C)C)cs1 | inconclusive: 0.0187 µM [cytotoxic, full curve, poor fit]
Cc1c(CN2CCN(S(C)(=O)=O)CC2)sc2c(N3CCOCC3)nc(-c3cnc(N)nc3)nc12 | inconclusive: 0.118 µM [cytotoxic, full curve]
CN1CCN(c2c(F)cc3c(=O)c(C(=O)O)cn(CCF)c3c2F)CC1 | inactive
CCOC(=O)c1ncn2c1CN(C)C(=O)c1cc(F)ccc1-2 | inactive
COc1cc(-c2nn(C3CCC(N4CCN(C(C)=O)CC4)CC3)c3ncnc(N)c23)ccc1NC(=O)c1cc2ccccc2n1C (stereo not given) | active: 0.372 µM
COc1ccc(Cn2ccc3ccc(C(=O)NO)cc32)cc1 | inconclusive: 37.2 µM [cytotoxic, single point]
CC(=O)Nc1cccc(-n2c(=O)n(C3CC3)c(=O)c3c(Nc4ccc(I)cc4F)n(C)c(=O)c(C)c32)c1 | inconclusive: 0.0066 µM [cytotoxic, full curve, poor fit]
CC(c1cc2ccccc2s1)N(O)C(N)=O (stereo not given) | inactive
C[C@@H](NC(=O)c1ncnc(N)c1Cl)c1ncc(C(=O)Nc2cc(C(F)(F)F)c(Cl)cn2)s1 | inconclusive: 5.26 µM [cytotoxic, full curve]
Cc1cn(-c2cc(NC(=O)c3ccc(C)c(Nc4nccc(-c5cccnc5)n4)c3)cc(C(F)(F)F)c2)cn1 | inconclusive: 0.296 µM [cytotoxic, partial curve, poor fit]
NS(=O)(=O)c1cc2c(cc1Cl)NC=NS2(=O)=O | inactive
CCN(CC)CCOc1ccc(Cc2ccccc2)cc1 | inconclusive: 0.0053 µM [rising, full curve]
OC[C@@H](O)[C@@H](O)[C@H](O)[C@@H](O)CO | inconclusive: 8.33 µM [rising, single point]
CC(C)NC[C@@H](C(=O)N1CCN(c2ncnc3c2[C@H](C)C[C@H]3O)CC1)c1ccc(Cl)cc1 | inconclusive: 33.2 µM [rising, partial curve, poor fit]
Clc1ccc2ncc(-c3cccc(NC4CNC4)n3)n2c1 | inconclusive: 9.35 µM [cytotoxic, single point]
Cn1c(NCCN(CCO)CCCc2ccc([N+](=O)[O-])cc2)cc(=O)n(C)c1=O | inconclusive: 33.2 µM [cytotoxic, single point]
CC(=O)NC(CS)C(=O)O (stereo not given) | inactive
O=C1CSC(=O)N1C(CCc1ccncc1)COc1ccc(-c2cccc([N+](=O)[O-])c2)cc1 (stereo not given) | inactive
CCCc1nc(C(C)(C)O)c(C(=O)O)n1Cc1ccc(-c2ccccc2-c2nn[nH]n2)cc1 | inactive
